Experimental data as given in publication PMC11217421.
Results are given in words; binding and its absence hold for the method and conditions named. In cells and extracts the contact can be indirect. Some results given as binding are weak or reduced against the parent protein; the word gives no strength.

Chains of the proteins cited; added tags and fusions are not shown.
UniProt Q9VWE6: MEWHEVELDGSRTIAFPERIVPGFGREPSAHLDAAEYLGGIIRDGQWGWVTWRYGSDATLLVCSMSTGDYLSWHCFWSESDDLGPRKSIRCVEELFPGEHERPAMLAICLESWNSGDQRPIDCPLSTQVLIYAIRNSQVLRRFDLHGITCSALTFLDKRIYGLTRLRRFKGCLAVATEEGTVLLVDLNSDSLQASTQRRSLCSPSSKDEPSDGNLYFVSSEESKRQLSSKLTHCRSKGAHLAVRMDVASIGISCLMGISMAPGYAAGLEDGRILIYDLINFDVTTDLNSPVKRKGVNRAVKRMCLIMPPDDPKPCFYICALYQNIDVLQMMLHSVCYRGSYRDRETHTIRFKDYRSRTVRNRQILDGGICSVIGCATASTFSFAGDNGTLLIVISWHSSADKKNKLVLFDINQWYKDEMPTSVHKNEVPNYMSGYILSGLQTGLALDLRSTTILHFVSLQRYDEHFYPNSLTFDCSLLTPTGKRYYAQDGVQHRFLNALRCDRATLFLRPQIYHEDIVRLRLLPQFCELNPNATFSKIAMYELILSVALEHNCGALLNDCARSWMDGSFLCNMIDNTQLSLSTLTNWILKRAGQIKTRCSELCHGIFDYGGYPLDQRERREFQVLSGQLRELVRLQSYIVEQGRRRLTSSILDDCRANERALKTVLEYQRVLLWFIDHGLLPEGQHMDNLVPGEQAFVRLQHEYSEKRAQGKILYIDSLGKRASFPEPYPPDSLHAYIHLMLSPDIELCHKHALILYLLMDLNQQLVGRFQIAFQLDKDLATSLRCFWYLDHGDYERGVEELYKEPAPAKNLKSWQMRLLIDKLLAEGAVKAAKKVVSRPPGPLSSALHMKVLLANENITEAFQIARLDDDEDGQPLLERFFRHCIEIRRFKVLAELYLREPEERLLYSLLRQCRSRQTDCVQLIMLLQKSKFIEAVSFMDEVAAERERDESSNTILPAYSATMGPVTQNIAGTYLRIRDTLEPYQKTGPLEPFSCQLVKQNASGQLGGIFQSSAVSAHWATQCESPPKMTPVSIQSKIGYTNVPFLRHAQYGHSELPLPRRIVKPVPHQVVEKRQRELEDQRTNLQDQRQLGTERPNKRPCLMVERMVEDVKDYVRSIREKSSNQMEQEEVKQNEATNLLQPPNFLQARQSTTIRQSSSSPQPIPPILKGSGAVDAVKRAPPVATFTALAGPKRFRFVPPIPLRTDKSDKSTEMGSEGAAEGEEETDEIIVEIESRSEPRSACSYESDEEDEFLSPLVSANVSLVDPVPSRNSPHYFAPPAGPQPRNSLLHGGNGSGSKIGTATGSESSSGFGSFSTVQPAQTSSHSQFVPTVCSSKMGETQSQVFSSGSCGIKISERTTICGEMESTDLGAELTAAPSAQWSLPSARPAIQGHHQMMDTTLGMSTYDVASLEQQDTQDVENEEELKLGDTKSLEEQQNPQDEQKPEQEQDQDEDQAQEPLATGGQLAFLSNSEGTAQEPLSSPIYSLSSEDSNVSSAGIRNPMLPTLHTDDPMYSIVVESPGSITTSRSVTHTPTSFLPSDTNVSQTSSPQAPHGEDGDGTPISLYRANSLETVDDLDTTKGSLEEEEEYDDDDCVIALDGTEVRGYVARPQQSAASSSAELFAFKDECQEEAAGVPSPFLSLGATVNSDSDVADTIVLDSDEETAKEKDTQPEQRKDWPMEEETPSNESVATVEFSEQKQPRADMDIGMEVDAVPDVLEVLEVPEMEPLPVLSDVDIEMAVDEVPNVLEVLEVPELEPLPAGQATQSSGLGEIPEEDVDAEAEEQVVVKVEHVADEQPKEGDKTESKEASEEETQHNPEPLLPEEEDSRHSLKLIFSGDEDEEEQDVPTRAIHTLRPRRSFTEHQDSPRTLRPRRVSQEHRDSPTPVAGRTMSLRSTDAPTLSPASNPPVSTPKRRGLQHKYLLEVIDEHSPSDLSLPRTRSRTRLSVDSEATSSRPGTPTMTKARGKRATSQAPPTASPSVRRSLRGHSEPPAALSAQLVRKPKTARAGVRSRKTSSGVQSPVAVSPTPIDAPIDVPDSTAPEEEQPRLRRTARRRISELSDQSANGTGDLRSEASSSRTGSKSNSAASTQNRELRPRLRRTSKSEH

Assays:
[1] = target: T1, GAGA factor (GAF) (Drosophila melanogaster (endogenous in S2)) (UniProt Q08605); assay: co-IP; S2 cell lysate (50 mM Tris-HCl pH 7.5, 150 mM NaCl, 1 mM EDTA, 1% Triton X-100, 0.1% NP-40); anti-Nup107, anti-Elys or anti-GAF antibodies on Protein G Dynabeads, 90 min at 25 °C; Western blot; non-immune serum as control
T1 sequence: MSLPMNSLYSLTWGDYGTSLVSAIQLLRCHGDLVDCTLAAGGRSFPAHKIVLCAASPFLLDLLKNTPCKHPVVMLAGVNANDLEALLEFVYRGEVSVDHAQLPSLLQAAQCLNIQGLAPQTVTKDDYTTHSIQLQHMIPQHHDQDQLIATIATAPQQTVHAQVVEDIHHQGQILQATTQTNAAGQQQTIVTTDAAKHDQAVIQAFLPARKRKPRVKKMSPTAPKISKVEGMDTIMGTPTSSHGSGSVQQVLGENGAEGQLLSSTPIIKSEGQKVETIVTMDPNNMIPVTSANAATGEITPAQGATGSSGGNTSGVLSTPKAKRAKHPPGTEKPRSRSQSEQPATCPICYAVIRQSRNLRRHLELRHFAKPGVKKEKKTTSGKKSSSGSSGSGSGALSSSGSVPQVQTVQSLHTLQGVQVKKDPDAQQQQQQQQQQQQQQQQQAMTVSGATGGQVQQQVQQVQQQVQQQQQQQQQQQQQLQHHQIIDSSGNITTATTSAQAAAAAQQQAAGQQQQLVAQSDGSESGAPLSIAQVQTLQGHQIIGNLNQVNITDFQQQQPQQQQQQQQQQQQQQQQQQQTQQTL

[2] = target: T2, Nup107 (Drosophila melanogaster (endogenous in S2)) (UniProt Q9V466); assay: as above
T2 sequence: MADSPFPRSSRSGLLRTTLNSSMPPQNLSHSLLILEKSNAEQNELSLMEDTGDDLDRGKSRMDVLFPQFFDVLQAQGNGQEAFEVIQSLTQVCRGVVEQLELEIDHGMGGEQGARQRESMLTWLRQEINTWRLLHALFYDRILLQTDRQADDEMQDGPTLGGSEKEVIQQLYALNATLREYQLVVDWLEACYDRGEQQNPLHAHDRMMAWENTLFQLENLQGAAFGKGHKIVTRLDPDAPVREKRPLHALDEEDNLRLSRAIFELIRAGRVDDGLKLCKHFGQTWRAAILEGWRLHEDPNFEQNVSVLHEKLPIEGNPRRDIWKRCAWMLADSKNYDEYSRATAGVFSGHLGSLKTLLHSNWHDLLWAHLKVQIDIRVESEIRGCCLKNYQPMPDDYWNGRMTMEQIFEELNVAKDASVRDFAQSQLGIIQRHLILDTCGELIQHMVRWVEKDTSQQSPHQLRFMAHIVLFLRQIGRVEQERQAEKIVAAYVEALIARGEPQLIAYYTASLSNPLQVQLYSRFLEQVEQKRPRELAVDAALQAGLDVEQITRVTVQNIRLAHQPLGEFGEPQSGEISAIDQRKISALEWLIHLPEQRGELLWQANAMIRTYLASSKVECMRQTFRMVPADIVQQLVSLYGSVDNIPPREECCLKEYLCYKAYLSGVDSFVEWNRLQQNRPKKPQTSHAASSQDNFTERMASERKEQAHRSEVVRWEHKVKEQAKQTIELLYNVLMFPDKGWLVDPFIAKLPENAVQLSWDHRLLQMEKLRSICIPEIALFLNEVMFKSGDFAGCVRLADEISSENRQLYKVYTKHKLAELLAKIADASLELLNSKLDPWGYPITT

binding [1]: no binding
binding [2]: binds
Substance: Nucleoporin Elys (from UniProt Q9VWE6 1-2111)
